Results deposited as PubChem BioAssay AID1259260 (Sanger Institute, 2017).
The whole screen tested 794 reagents; shown is an unselected part. 13 of all reagents (1.6%) count as active. 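Calls reflect only knock-down without drug; synergy above 0.15 was grouped apart and does not change the call.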 A number with no mark means an inactive call. Not all columns of the deposit are shown. Reagent sequences are not shown. Not stated in the record: the amount of reagent, the time to read-out.

Aim: 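Kinases whose knock-down kills colorectal cancer cells or boosts drug effects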 (primary screen)
Cells: human NCI-H716 colorectal cancer cells
Reagents: siRNA pool against human genes
Challenge: anchor drugs BYL719 (alpelisib) 1 µM, cetuximab 5 µg/ml or trametinib 10 nM, each at a dose chosen to harm viability only mildly; DMSO vehicle for the knock-down-alone arm
Detection: 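Replicate-averaged viability relative to a non-targeting pool, a robust z-score for knock-down alone, and a synergy score per anchor drug versus each agent alone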
Scale: viability robust z-score, siRNA alone: higher = more surviving cells; below -3 called essential
Rule for the call: 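Essential when the robust z-score for knock-down alone falls below -3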
Calls: active = essential (knock-down alone lowers viability); inactive = no essential effect

PI4K2B gave viability robust z-score, siRNA alone 0.107.
CDK15 gave viability robust z-score, siRNA alone 0.602.
Against PTGS1, the entry reads viability robust z-score, siRNA alone -2.22.
After knock-down of CAMKV the results were viability robust z-score, siRNA alone -1.78.
Silencing of BRWD1 resulted in: viability robust z-score, siRNA alone 0.33.
Silencing of DGUOK came out at: viability robust z-score, siRNA alone -0.851.
After knock-down of AK7, the screen gave viability robust z-score, siRNA alone -0.0734.
CSNK1G2 gave viability robust z-score, siRNA alone 0.602.
With knock-down of SMAD4, the record shows viability robust z-score, siRNA alone 0.602.
After knock-down of KSR2 the results were viability robust z-score, siRNA alone 0.602.
Silencing of PRKAA1 came out at: viability robust z-score, siRNA alone 0.602.
Against GALK1, the entry reads viability robust z-score, siRNA alone 0.129.
Knock-down of SRPK2 resulted in: viability robust z-score, siRNA alone 0.602.
After knock-down of ACVR2A, the screen gave viability robust z-score, siRNA alone 0.602.
IRAK2 showed viability robust z-score, siRNA alone 0.385.
TNIK gave viability robust z-score, siRNA alone -1.77.
TAOK1 showed viability robust z-score, siRNA alone 0.0305.
GTF2H1 showed viability robust z-score, siRNA alone 0.602.
After knock-down of CDKL4, the screen gave viability robust z-score, siRNA alone 0.602.

Entries listed so far whose gene name begins with S or s:
SMAD4 → viability robust z-score, siRNA alone = 0.602
SRPK2 → viability robust z-score, siRNA alone = 0.602
